Measurements reported in PubChem BioAssay AID504791 (Drosophila RNAi Screening Center, 2011).

Screen: 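Genes whose knock-down strengthens or weakens small-RNA reporter silencing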 (primary screen)
System: Drosophila S2-derived reporter cells
Knock-down reagent: long dsRNA against Drosophila genes, about 150-250 ng dsRNA per well (siRNA assay); about 80-120 ng (miRNA assay)
Timing: about 5 days (siRNA assay); about 4 days (miRNA assay)
Challenge: copper sulfate induction of reporters: 25 µM (siRNA assay); 200 mM stated (miRNA assay), 1-2 days before reading
Detection: 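Dual luciferase assay: Renilla to firefly signal ratio in each well, scaled to the mean ratio of its plate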
Units: stable assay Renilla, run 1 in luminescence; stable assay firefly, run 1 in luminescence
Active means: 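a well was a first-pass pick when its plate-scaled ratio rose above 1.5 (siRNA assay) or 1.6 (miRNA assay), or dropped below 0.6; a gene counted only if two separate dsRNAs agreed on retest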
In all, the deposit lists about 23,000 reagents; this is a random part of those that have a named target and a result. Of all reagents, 199 (0.86%) got an active call. 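Plate-scaled ratios behind the calls are not deposited; printed light signals are raw; many rows marked increased or decreased are still called inactive.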 The numbers tell different reagents against one gene apart. Not given: the direction of the score.

With mute (muscle wasted) #1, what does the deposit list?
stable assay Renilla, run 1: 6870; stable assay firefly, run 1: 3.71e5; Outcome: inactive

For mute (muscle wasted) #2, how do the results read?
miRNA reporter change: reporter ratio raised past the hit cutoff; stable assay Renilla, run 1: 6250; stable assay firefly, run 1: 5.45e5; Outcome: inactive

Which result is listed for Lsp1beta (Larval serum protein 1 beta)?
stable assay Renilla, run 1: 33406; stable assay firefly, run 1: 2.17e5; Outcome: inactive

With CG15136, what does the deposit list?
stable assay Renilla, run 1: 7491; stable assay firefly, run 1: 4.58e5; Outcome: inactive

With stl (stall), what was measured?
stable assay Renilla, run 1: 1.45e5; stable assay firefly, run 1: 2.83e5; Outcome: inactive

With Jon66Cii (Jonah 66Cii), what does the deposit list?
stable assay Renilla, run 1: 6528; stable assay firefly, run 1: 4.27e5; Outcome: inactive

What did the screen give for Dro (Drosocin)?
stable assay Renilla, run 1: 5920; stable assay firefly, run 1: 4.00e5; Outcome: inactive

What did the screen give for yuri (yuri gagarin) #1?
stable assay Renilla, run 1: 5952; stable assay firefly, run 1: 5.79e5; Outcome: inactive

Which result is listed for yuri (yuri gagarin) #2?
stable assay Renilla, run 1: 5927; stable assay firefly, run 1: 4.53e5; Outcome: inactive

With yuri (yuri gagarin) #3, how do the results read?
stable assay Renilla, run 1: 8186; stable assay firefly, run 1: 4.03e5; Outcome: inactive

With yuri (yuri gagarin) #4, how do the results read?
stable assay Renilla, run 1: 2.14e5; stable assay firefly, run 1: 1.21e6; Outcome: inactive

Which result is listed for Nipped-B?
stable assay Renilla, run 1: 5998; stable assay firefly, run 1: 4.29e5; Outcome: inactive

With CG12105, what was measured?
stable assay Renilla, run 1: 9198; stable assay firefly, run 1: 3.20e5; Outcome: inactive

For Cpr60D (Cuticular protein 60D), what does the deposit list?
stable assay Renilla, run 1: 6787; stable assay firefly, run 1: 4.16e5; Outcome: inactive

Which result is listed for Trf4 (TBP-related factor 4)?
stable assay Renilla, run 1: 8350; stable assay firefly, run 1: 4.22e5; Outcome: inactive

Which result is listed for wap (wings apart)?
stable assay Renilla, run 1: 7258; stable assay firefly, run 1: 3.40e5; Outcome: inactive

With hyd (hyperplastic discs), what was measured?
stable siRNA reporter change: reporter ratio raised past the hit cutoff; stable assay Renilla, run 1: 14571; stable assay firefly, run 1: 5.54e5; Outcome: active

What did the screen give for PrBP (Prenyl-binding protein)?
stable siRNA reporter change: reporter ratio raised past the hit cutoff; stable assay Renilla, run 1: 15274; stable assay firefly, run 1: 4.32e5; Outcome: inactive

Which result is listed for Osi13 (Osiris 13)?
stable assay Renilla, run 1: 6498; stable assay firefly, run 1: 4.48e5; Outcome: inactive

2 of these entries in another layout:
Cpr60D (Cuticular protein 60D)
- stable assay Renilla, run 1: 6787
- stable assay firefly, run 1: 4.16e5
- Outcome: inactive

Trf4 (TBP-related factor 4)
- stable assay Renilla, run 1: 8350
- stable assay firefly, run 1: 4.22e5
- Outcome: inactive
